Laboratory results reported in paper PMC12670160, “A drug-repurposing screen of FDA- and EMA-approved drugs identifies two NF-κB inhibitors active against eumycetoma” (Journal of Antimicrobial Chemotherapy, 2025).
Where a name gives a salt, the structure may show the parent alone. Hit rate of the full screen: of about 5,300 compounds, about 130 (2.5%) showed an effect of 50% or more. The list shows a part of the results.

Tested on: M. mycetomatis strain mm55
Conditions: primary screen, metabolic activity vs growth control; 96 h, 2 µM; inhibitor

**Q.** `CC(C)CCNC(=O)[C@H](CC(C)C)NC(=O)[C@H]1O[C@@H]1C(=O)O` [ONC0005165, loxistatin acid e64c] was tested. Which “% viability” value did it give?
**A.** 67.27%

**Q.** Which “% viability” value does the source give for `NCCCCCC(=O)O` [ONC0003178, aminocaproic acid hydrochloride] here?
**A.** 100.5%

**Q.** Which “% viability” value does the source give for `CCCCCCCCCCCCCCCCCCCCCC(=O)O` [ONC0003462, docosanoic acid] here?
**A.** 69.23%

**Q.** For `c1ccc2c(CCNc3ccc(Nc4ccncc4)cc3)c[nH]c2c1` [ONC0004895, jnj 26854165 serdemetan], which “% viability” value is on record?
**A.** 144.5%

**Q.** Which “% viability” value does the source give for `Cc1csc(-c2nnc(Nc3ccc(Oc4ncccc4-c4ccnc(N)n4)cc3)c3ccccc23)c1` [ONC0004333, amg 900] here?
**A.** 137.6%

**Q.** How did the “% viability” value turn out when `CC(NC(C)(C)C)C(=O)c1cccc(Cl)c1` (stereo not drawn) [ONC0002366, bupropion] was run?
**A.** 81.3%

**Q.** `N#C/C(=C\c1ccc(O)c(O)c1)C(=O)NCCCCc1ccccc1` [ONC0000130, ag556] was tested. Which “% viability” value did it give?
**A.** 86.17%

**Q.** How did the “% viability” value turn out when `COC(=O)NC(C)CNc1nccc(-c2cn(C(C)C)nc2-c2cc(Cl)cc(NS(C)(=O)=O)c2F)n1` (stereo not drawn) [ONC0004371, encorafenib lgx818] was run?
**A.** 101%

**Q.** Which “% viability” value does the source give for `NC(=O)C[C@H](N)C(=O)O` [ONC0002130, lasparagine] here?
**A.** 76.47%

**Q.** With `C#Cc1cncc([C@@H]2CCCN2C)c1` [ONC0000114, altinicline] as the molecule, how does the “% viability” value read?
**A.** 86.96%

**Q.** For `NC1(C(=O)O)CC1` [ONC0001943, 1aminocyclopropanecarboxylic acid], which “% viability” value is on record?
**A.** 104.2%

**Q.** For `Cc1noc(NS(=O)(=O)c2cccc3c(N(C)C)cccc23)c1C` [ONC0001555, bms182874], which “% viability” value is on record?
**A.** 108.5%

**Q.** Which “% viability” value does the source give for `CCN(CC)C(=O)c1ccc(O)c(OC)c1` [ONC0005425, ethamivan] here?
**A.** 72.26%

**Q.** `Clc1ccc(N/N=C(\c2ccccc2)c2ccccn2)nc1` [ONC0004403, jib04 nsc693627] was tested. Which “% viability” value did it give?
**A.** 57.7%

**Q.** `O=C(c1ccc(F)cc1)C1CCN(CCn2c(=O)[nH]c3ccccc3c2=O)CC1` [ONC0004156, ketanserin] was tested. Which “% viability” value did it give?
**A.** 94.97%

**Q.** How did the “% viability” value turn out when `CCCCCCCC/C=C/CCCCCCCC(=O)OC[C@H]1O[C@@H](n2ccc(N)nc2=O)C(F)(F)[C@@H]1O` [ONC0000902, gemcitabine elaidate] was run?
**A.** 79.09%

**Q.** `CC(=O)O[C@@H]1CC[C@@]2(C)[C@@H](CC[C@]3(C)[C@@H]2C(=O)C=C2[C@@H]4[C@@H](C)[C@H](C)CC[C@]4(C)CC[C@]23C)[C@@]1(C)C(=O)O` [ONC0002083, akba] was tested. Which “% viability” value did it give?
**A.** 67.6%

**Q.** For `NC(=O)Nc1cc(-c2cccc(F)c2)sc1C(=O)N[C@H]1CCCNC1` [ONC0001254, azd7762], which “% viability” value is on record?
**A.** 80.73%

**Q.** `Nc1ncnc2c1ncn2[C@@H]1O[C@H](COP(=O)(O)OP(=O)(O)OP(=O)(O)OP(=O)(O)OC[C@H]2O[C@@H](n3cnc4c(N)ncnc43)C(O)C2O)C(O)C1O` (stereo partly drawn) [ONC0001970, p1p4diadenosine5tetraphosphate ammonium salt] was tested. Which “% viability” value did it give?
**A.** 87.03%

**Q.** How did the “% viability” value turn out when `C[C@H]1[C@H](C)CC[C@]2(C(=O)O)CC[C@]3(C)C(=CC[C@@H]4[C@@]5(C)CC[C@H](O)C(C)(C)[C@@H]5CC[C@]43C)[C@H]12` [ONC0005508, ursolicacid] was run?
**A.** 146.9%

**Q.** How did the “% viability” value turn out when `C[Se]C[C@H](N)C(=O)O` [ONC0002605, semethylselenolcysteine] was run?
**A.** 72.63%

**Q.** How did the “% viability” value turn out when `O=C(O)[C@@H]1C[C@@H](O)CN1` [ONC0004124, trans4hydroxylproline] was run?
**A.** 95.08%

**Q.** `C[C@H](N)C(=O)N[C@@]1(C(=O)O)C[C@@H](Sc2nnc[nH]2)[C@H]2[C@H](C(=O)O)[C@H]21` [ONC0000921, ly2979165] was tested. Which “% viability” value did it give?
**A.** 66.28%

**Q.** Which “% viability” value does the source give for `CC(=O)N[C@@H](CSC/C=C(\C)CC/C=C(\C)CCC=C(C)C)C(=O)O` [ONC0003861, acetylfarnesylcysteine] here?
**A.** 77.21%

**Q.** Which “% viability” value does the source give for `Cc1nc2c(-c3cnc(N)nc3)nc(N3CCOCC3)nc2n1C(C)C` [ONC0001346, vs5584] here?
**A.** 70.29%

**Q.** Which “% viability” value does the source give for `Nc1nccc(Oc2ccc(NC(=O)c3c[nH]cc(-c4ccc(F)cc4)c3=O)cc2F)c1Cl` [ONC0004988, bms 794833] here?
**A.** 97.21%

**Q.** For `CCN(CC)C(=S)S` [ONC0003713, ditiocarbsodiumtrihydrate], which “% viability” value is on record?
**A.** 88.67%

**Q.** For `O=C(c1c(F)ccc(NS(=O)(=O)N2CC[C@@H](F)C2)c1F)c1c[nH]c2ncc(-c3cnc(C4CC4)nc3)cc12` [ONC0000848, plx8394], which “% viability” value is on record?
**A.** 61.89%

**Q.** With `CC(=O)[C@@]1(O)CC[C@H]2[C@@H]3CCC4=CC(=O)CC[C@]4(C)[C@H]3CC[C@@]21C` [ONC0005305, hydroxyprogesterone] as the molecule, how does the “% viability” value read?
**A.** 50.87%

**Q.** With `COc1ccc(COc2ccc(CC#N)cc2)cc1` [ONC0003563, o4i1] as the molecule, how does the “% viability” value read?
**A.** 136%

**Q.** Which “% viability” value does the source give for `CC1=C(/C=C/C(C)=C/C=C/C(C)CC=O)C(C)(C)CCC1` (stereo not drawn) [ONC0004153, all trans retinal] here?
**A.** 80.19%

**Q.** Which “% viability” value does the source give for `CCc1[nH]c(=O)[nH]c1C(=O)c1ccncc1` [ONC0003720, piroximone] here?
**A.** 96.52%

**Q.** `Nc1nc(NCCNc2ncc(-n3ccnc3)c(-c3ccc(Cl)cc3Cl)n2)ccc1[N+](=O)[O-]` [ONC0005257, chir98014] was tested. Which “% viability” value did it give?
**A.** 118.6%

**Q.** With `O=C(NC1(c2ccccc2)CC1)c1c(CN2CCC(N3CCCCC3)CC2)c(-c2cccc(C(F)(F)F)c2)nc2cc(Br)ccc12` [ONC0003010, gsk2193874] as the molecule, how does the “% viability” value read?
**A.** 85.52%

**Q.** `O=C(Nc1c[nH]nc1-c1nc2cc(CN3CCOCC3)ccc2[nH]1)NC1CC1` [ONC0004692, at9283] was tested. Which “% viability” value did it give?
**A.** 87.23%

**Q.** With `Clc1ccc2c(c1)CCc1cccnc1C2=C1CCNCC1` [ONC0003934, desloratidine] as the molecule, how does the “% viability” value read?
**A.** 77.89%

**Q.** With `CCCCC/C=C\C/C=C\CCCCCCCC(=O)NCCCC(=O)O` [ONC0003440, linoleoyl gaba] as the molecule, how does the “% viability” value read?
**A.** 70.93%

**Q.** Which “% viability” value does the source give for `O=C1NCC2(CCN(CCc3ccccc3)CC2)O1` [ONC0000630, fenspiride hydrochloride] here?
**A.** 98.68%

**Q.** Which “% viability” value does the source give for `CC(C)[C@]12O[C@H]1[C@@H]1O[C@]13[C@]1(O[C@H]1C[C@H]1C4=C(CC[C@@]13C)C(=O)OC4)[C@@H]2O` [ONC0004509, triptolide] here?
**A.** 76.43%
